Tested on: mtOXPHOS transcripts
Format: cell-based, mouse

CCOC(=O)N1CCC(=C2c3ccc(Cl)cc3CCc3cccnc32)CC1 [loratadine]
mitoOX: −0.499

— patent US20090143279A1 (priority 2007, published 2009)
